# Data source: PubChem BioAssay AID1259308 (NCATS, 2017)
# Assay: 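Candidate targets for better recombinant protein yield in mammalian cells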 (primary screen)
# System: human HEK293 embryonic kidney cells stably expressing firefly luciferase (HEK-CMV-Luc2-Hygro)
# Knock-down reagent: single siRNA against human genes, 0.8 pmol siRNA per well
# Time to read-out: 72 h
# Measured: 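Reporter luminescence and viable-cell signal on separate replicate plates, given as percent of non-targeting control and median/MAD z-scores, plus per-cell luciferase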
# Scale: total luciferase, z-score and total luciferase, % of control: higher = more reporter protein produced; luciferase per cell, z-score: higher = more reporter output per viable cell; viable cells, % of control: higher = more viable cells
# Hit rule: 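Active when the median/MAD z-score for overall luciferase is greater than 3; a gene was taken forward for validation with new siRNAs if at least two of its three siRNAs passed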
# Calls: active = raised luciferase; inactive = no rise
# This is a random part of about 59,000 reagents tested. Of all reagents, about 1,510 (2.6%) are marked active. 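Calls use total luciferase alone and ignore viability, so some active siRNAs may act by altering cell number.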 The numbers tell different reagents against one gene apart. Reagent sequences are not shown.
Gene,siRNA no.,"total luciferase, z-score","total luciferase, % of control","luciferase per cell, z-score","viable cells, % of control",activity call
RPL9 (ribosomal protein L9),1,-2.47,32.8,-0.902,46.4,inactive
RPL9 (ribosomal protein L9),2,-2.51,32,-0.0108,35.9,inactive
RPL9 (ribosomal protein L9),3,-2.62,29.8,-1.52,49.8,inactive
EBLN2 (endogenous Bornavirus like nucleoprotein 2),1,0.184,85.5,-0.12,98.7,inactive
EBLN2 (endogenous Bornavirus like nucleoprotein 2),2,-1.24,57.2,-1.08,85,inactive
EBLN2 (endogenous Bornavirus like nucleoprotein 2),3,-0.895,64.1,-0.0671,72.9,inactive
HCRT (hypocretin neuropeptide precursor),1,0.321,88.3,0.579,84.7,inactive
HCRT (hypocretin neuropeptide precursor),2,1.95,121,1.73,85.6,inactive
HCRT (hypocretin neuropeptide precursor),3,0.619,94.2,0.551,91,inactive
PCDHA5 (protocadherin alpha 5),1,0.606,93.9,1.1,78.5,inactive
PCDHA5 (protocadherin alpha 5),2,0.00959,82.1,0.0651,90.2,inactive
PCDHA5 (protocadherin alpha 5),3,-0.832,65.3,-1.24,101,inactive
MYBPC3 (myosin binding protein C3),1,-0.483,72.3,-0.626,95.2,inactive
MYBPC3 (myosin binding protein C3),2,0.13,84.5,0.854,75.4,inactive
MYBPC3 (myosin binding protein C3),3,0.0284,82.5,0.15,88.6,inactive
"PCYT2 (phosphate cytidylyltransferase 2, ethanolamine)",1,-0.17,78.5,-0.27,94.2,inactive
"PCYT2 (phosphate cytidylyltransferase 2, ethanolamine)",2,0.51,92,0.15,98.9,inactive
"PCYT2 (phosphate cytidylyltransferase 2, ethanolamine)",3,0.396,89.8,0.558,86.6,inactive
SNX7 (sorting nexin 7),1,1.28,107,1.06,90.8,inactive
SNX7 (sorting nexin 7),2,-0.0442,81,-0.845,113,inactive
SNX7 (sorting nexin 7),3,-0.426,73.4,-0.942,105,inactive
HACD3 (3-hydroxyacyl-CoA dehydratase 3),1,0.151,84.9,-0.0395,95.9,inactive
HACD3 (3-hydroxyacyl-CoA dehydratase 3),2,0.192,85.7,0.209,90.6,inactive
HACD3 (3-hydroxyacyl-CoA dehydratase 3),3,-0.0696,80.5,-0.0752,91.8,inactive
CDK5RAP3 (CDK5 regulatory subunit associated protein 3),1,2.21,126,0.788,114,inactive
CDK5RAP3 (CDK5 regulatory subunit associated protein 3),2,-0.38,74.3,-0.223,88.1,inactive
CDK5RAP3 (CDK5 regulatory subunit associated protein 3),3,-0.128,79.3,-0.0516,89.9,inactive
"LSM11 (LSM11, U7 small nuclear RNA associated)",1,0.0578,83,-0.0785,94.7,inactive
"LSM11 (LSM11, U7 small nuclear RNA associated)",2,0.634,94.5,-0.0864,108,inactive
"LSM11 (LSM11, U7 small nuclear RNA associated)",3,-0.705,67.9,-0.472,85.9,inactive
SLC34A3,1,-0.249,76.9,0.279,79.9,inactive
SLC34A3,2,-0.125,79.4,0.0674,87.2,inactive
SLC34A3,3,-0.135,79.2,0.189,84.2,inactive
RAD51C (RAD51 paralog C),1,0.351,88.9,1.04,75.5,inactive
RAD51C (RAD51 paralog C),2,2.19,125,1.36,97.9,inactive
RAD51C (RAD51 paralog C),3,0.0278,82.4,0.828,74.1,inactive
SPATA7 (spermatogenesis associated 7),1,0.906,99.9,0.728,92.2,inactive
SPATA7 (spermatogenesis associated 7),2,-0.173,78.4,0.182,83.5,inactive
SPATA7 (spermatogenesis associated 7),3,1.27,107,0.532,104,inactive
MARCHF11 (membrane associated ring-CH-type finger 11),1,0.352,88.9,-0.12,103,inactive
MARCHF11 (membrane associated ring-CH-type finger 11),2,0.964,101,0.769,92.2,inactive
MARCHF11 (membrane associated ring-CH-type finger 11),3,-0.127,79.4,-0.654,105,inactive
CCL4 (C-C motif chemokine ligand 4),1,-2.4,34.1,-2.41,71.9,inactive
CCL4 (C-C motif chemokine ligand 4),2,0.658,95,0.216,100,inactive
CCL4 (C-C motif chemokine ligand 4),3,0.827,98.3,0.784,89.4,inactive
CCNE1 (cyclin E1),1,-0.228,77.4,-0.833,108,inactive
CCNE1 (cyclin E1),2,2.3,128,1.69,91.4,inactive
CCNE1 (cyclin E1),3,0.247,86.8,0.429,86.6,inactive
ZBTB25 (zinc finger and BTB domain containing 25),1,0.413,90.1,0.537,87.4,inactive
ZBTB25 (zinc finger and BTB domain containing 25),2,0.0938,83.8,-0.0769,95.5,inactive
ZBTB25 (zinc finger and BTB domain containing 25),3,0.0255,82.4,-0.376,102,inactive
IGFL2 (IGF like family member 2),1,-0.0139,81.6,0.299,84.3,inactive
IGFL2 (IGF like family member 2),2,-0.584,70.3,-0.494,89.4,inactive
IGFL2 (IGF like family member 2),3,-0.223,77.5,-0.363,95.2,inactive
SYCN (syncollin),1,0.791,97.6,-0.0158,110,inactive
SYCN (syncollin),2,0.541,92.7,0.354,94.3,inactive
SYCN (syncollin),3,-1.13,59.3,-0.551,76.7,inactive

As entered above:
CDK5RAP3 (CDK5 regulatory subunit associated protein 3) #3, viable cells, % of control: 89.9
HACD3 (3-hydroxyacyl-CoA dehydratase 3) #2, activity call: inactive
SLC34A3 #1, total luciferase, % of control → 76.9
EBLN2 (endogenous Bornavirus like nucleoprotein 2) #1, total luciferase, % of control → 85.5
